These are yes or no findings as the source states them, for the method shown. For part of these data: Binding seen in cells or lysates may run through a third protein. Some binding calls cover weakened binding; strength is not graded here.
Key:
[1] = molecular target: Drosophila Cdk5 (endogenous, BG2-c2 neuronal cells) (Drosophila melanogaster) (UniProt P48609); experiment: co-immunoprecipitation (anti-HA) and anti-Cdk5 Western blot from BG2-c2 cell lysates; association abolished by STI571
[2] = molecular target: Drosophila Cdk5 (endogenous, BG2-c2 neuronal cells) (Drosophila melanogaster) (UniProt P48609); experiment: co-immunoprecipitation (anti-HA) followed by anti-Cdk5 and anti-HA immunoblotting, BG2-c2 cells treated with Aβ42 or STI571
[3] = molecular target: Drosophila Cdk5 (endogenous, BG2-c2 neuronal cells) (Drosophila melanogaster) (UniProt P48609); experiment: immunoprecipitation and Western blot with in vitro kinase assay, BG2-c2 cells

The chains behind the UniProt entries cited, without tags or fusion partners.
UniProt P48609: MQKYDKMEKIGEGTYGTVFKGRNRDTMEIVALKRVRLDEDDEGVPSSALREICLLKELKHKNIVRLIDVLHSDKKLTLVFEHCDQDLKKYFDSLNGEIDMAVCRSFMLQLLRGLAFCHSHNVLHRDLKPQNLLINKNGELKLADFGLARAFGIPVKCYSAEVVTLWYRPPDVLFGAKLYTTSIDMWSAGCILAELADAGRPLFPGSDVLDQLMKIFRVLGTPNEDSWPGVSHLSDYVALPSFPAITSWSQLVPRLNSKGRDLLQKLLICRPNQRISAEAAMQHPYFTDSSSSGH
UniProt P00522: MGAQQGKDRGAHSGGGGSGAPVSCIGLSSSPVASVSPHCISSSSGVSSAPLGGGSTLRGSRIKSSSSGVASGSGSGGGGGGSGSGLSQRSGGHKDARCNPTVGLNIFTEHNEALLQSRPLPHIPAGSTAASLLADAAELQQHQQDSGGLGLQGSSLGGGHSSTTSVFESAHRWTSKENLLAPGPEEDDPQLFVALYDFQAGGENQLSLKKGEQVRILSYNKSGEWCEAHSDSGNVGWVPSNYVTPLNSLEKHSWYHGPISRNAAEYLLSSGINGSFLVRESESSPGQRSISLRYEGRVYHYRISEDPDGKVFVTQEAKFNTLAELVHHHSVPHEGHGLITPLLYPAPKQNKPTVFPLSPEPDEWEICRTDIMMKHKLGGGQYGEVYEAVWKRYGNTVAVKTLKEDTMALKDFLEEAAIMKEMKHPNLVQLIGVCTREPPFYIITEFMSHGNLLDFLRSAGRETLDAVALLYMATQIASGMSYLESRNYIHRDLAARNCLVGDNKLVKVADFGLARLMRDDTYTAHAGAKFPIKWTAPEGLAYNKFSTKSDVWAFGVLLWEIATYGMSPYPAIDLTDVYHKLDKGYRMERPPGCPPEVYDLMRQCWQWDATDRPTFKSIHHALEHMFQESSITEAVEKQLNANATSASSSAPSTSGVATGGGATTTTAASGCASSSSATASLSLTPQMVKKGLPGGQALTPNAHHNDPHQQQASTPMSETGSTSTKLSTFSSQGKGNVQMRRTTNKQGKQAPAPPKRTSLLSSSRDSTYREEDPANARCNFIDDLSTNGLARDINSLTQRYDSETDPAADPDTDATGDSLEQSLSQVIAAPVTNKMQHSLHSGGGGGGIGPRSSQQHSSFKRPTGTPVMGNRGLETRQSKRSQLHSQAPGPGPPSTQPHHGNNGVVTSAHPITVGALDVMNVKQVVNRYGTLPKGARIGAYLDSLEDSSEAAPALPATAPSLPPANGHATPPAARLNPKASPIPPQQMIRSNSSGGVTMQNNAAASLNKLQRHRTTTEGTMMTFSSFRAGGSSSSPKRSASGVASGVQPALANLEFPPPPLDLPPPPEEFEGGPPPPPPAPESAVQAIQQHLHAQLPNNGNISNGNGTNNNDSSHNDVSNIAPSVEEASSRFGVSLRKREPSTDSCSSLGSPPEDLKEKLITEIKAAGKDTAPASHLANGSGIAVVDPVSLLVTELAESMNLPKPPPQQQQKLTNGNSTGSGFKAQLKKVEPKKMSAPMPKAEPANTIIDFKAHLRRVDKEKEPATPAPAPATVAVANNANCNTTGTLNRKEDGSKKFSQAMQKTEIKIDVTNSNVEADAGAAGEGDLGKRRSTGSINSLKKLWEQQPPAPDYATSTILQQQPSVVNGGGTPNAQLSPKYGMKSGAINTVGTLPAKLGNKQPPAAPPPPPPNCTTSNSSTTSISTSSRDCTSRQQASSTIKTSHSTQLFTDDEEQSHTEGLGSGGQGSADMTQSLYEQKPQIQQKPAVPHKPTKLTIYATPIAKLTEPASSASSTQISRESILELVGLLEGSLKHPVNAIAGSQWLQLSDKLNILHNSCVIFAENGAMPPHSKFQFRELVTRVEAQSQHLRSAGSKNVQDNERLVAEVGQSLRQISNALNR

binding [1]: binds
binding [2]: binds
binding [3]: binds
Substance: HA-tagged Abl (Drosophila Abl expressed from pAc5.1 in BG2-c2 cells) (from UniProt P00522 1-1620) (enzyme)
